# No constants are given. Whether binding was seen depends on the method and setting. In cells and extracts the contact can be indirect. Some entries that bind do so weakly or less than the wild type.
# Sequences of proteins named here, by UniProt entry; tags and fusion partners are left off.
# UniProt Q9UKV8: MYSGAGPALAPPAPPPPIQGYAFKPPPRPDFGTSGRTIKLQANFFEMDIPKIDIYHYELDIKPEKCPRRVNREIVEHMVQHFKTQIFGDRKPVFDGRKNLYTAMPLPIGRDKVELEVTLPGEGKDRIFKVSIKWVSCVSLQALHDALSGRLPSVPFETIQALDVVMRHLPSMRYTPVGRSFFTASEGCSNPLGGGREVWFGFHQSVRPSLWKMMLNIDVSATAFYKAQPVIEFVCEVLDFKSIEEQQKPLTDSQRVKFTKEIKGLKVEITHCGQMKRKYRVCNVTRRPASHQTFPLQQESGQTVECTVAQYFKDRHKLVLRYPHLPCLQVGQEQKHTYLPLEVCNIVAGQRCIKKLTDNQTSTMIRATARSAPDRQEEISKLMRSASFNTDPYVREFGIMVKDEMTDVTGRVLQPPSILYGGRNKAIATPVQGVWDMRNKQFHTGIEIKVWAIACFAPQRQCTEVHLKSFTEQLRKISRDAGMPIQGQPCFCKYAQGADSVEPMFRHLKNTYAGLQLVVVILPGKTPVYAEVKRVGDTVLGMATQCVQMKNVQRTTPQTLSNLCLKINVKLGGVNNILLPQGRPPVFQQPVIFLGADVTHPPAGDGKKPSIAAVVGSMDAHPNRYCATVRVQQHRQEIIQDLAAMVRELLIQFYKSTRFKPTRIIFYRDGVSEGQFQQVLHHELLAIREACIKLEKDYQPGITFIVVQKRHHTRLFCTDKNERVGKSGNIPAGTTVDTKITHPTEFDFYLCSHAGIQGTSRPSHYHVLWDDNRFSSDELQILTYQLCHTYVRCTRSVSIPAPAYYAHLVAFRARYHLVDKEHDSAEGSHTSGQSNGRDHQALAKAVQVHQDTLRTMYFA
# UniProt Q8NDV7: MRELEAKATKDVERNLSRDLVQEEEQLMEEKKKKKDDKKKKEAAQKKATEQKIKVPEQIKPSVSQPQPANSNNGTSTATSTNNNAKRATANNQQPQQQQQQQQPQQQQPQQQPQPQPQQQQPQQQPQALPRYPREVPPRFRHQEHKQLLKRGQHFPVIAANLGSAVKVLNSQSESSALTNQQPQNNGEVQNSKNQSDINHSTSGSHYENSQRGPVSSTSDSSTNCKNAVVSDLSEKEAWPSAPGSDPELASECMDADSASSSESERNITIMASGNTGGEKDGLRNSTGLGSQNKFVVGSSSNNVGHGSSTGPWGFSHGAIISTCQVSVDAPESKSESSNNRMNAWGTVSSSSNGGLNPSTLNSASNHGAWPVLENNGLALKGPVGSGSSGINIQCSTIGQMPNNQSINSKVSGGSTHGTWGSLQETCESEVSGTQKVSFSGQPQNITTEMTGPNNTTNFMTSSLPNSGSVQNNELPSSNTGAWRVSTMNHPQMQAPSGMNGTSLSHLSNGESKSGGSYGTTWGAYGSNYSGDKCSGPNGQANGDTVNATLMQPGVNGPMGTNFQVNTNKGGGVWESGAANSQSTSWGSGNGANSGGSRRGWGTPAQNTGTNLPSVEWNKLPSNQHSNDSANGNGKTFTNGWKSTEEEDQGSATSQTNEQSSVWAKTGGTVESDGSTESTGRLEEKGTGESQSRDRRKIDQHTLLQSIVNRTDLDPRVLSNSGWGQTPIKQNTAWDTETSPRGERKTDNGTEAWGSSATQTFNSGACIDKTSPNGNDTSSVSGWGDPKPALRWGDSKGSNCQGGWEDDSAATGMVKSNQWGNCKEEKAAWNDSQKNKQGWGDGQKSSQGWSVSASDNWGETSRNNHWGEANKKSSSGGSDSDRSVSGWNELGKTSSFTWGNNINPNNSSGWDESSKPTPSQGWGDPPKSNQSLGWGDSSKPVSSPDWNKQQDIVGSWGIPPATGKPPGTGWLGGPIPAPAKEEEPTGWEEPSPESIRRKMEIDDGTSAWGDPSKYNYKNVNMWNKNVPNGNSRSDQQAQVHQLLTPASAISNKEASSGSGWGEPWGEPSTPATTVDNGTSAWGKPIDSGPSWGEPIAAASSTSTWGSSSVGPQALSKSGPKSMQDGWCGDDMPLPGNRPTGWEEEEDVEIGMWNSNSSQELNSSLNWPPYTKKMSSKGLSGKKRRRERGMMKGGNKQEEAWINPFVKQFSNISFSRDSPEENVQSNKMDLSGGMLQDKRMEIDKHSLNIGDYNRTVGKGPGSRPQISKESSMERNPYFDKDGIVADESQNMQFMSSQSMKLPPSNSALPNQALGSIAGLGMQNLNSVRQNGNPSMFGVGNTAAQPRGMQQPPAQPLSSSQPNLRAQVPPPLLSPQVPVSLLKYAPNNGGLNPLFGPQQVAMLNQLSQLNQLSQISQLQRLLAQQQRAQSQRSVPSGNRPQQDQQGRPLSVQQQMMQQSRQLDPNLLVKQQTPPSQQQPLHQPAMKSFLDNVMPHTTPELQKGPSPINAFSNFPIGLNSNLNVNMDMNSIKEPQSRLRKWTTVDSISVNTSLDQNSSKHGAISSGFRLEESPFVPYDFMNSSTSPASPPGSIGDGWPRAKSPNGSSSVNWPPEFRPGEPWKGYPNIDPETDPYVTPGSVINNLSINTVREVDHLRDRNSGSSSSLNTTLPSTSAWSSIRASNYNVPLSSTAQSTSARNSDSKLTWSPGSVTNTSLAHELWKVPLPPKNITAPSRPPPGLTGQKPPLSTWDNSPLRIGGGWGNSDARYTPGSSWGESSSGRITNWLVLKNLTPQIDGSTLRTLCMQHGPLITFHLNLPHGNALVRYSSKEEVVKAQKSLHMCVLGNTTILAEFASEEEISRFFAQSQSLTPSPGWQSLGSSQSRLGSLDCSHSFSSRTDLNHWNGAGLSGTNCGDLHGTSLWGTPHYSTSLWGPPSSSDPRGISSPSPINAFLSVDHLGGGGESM
# Legend:
# [1] = molecular target: argonaute-2 (AGO2) (human (endogenous in A549)) (UniProt Q9UKV8); assay: co-IP; A549 nuclear extract (0.5-1 mg total protein) with 1.5 ug anti-AGO2 or anti-GW182 antibody on Protein G Plus/Protein A resin, 4°C for 4 h; washed 4x with 20 mM Tris pH 7.5, 0.4 M NaCl, 2 mM MgCl2, 0.05% NP-40, 0.025% SDS; western blot with anti-AGO2 or anti-GW182
# [2] = molecular target: GW182 (TNRC6A) (human (endogenous in A549)) (UniProt Q8NDV7); assay: as above
Substance,binding [1],binding [2]
GW182 (TNRC6A) (from UniProt Q8NDV7 1-1962),binds,–
argonaute-2 (AGO2) (from UniProt Q9UKV8 1-859),–,binds

# — article PMC3905862
